Reference: the supplement of paper PMC10849652
Some of the results follow.

Protein sequences, listed by entry. Tags and fused reporters are not part of them. Lines headed by an entry give the natural chain unless they say otherwise; changes in a name come on top.
UniProt O43396: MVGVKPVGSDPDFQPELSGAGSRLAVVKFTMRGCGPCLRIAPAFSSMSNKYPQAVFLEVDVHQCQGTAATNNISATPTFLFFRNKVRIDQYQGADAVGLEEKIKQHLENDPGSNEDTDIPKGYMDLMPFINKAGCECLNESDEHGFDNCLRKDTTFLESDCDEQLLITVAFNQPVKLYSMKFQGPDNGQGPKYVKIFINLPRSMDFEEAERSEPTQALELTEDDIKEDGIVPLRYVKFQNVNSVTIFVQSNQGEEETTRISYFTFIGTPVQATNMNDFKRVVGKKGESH
UniProt Q14157: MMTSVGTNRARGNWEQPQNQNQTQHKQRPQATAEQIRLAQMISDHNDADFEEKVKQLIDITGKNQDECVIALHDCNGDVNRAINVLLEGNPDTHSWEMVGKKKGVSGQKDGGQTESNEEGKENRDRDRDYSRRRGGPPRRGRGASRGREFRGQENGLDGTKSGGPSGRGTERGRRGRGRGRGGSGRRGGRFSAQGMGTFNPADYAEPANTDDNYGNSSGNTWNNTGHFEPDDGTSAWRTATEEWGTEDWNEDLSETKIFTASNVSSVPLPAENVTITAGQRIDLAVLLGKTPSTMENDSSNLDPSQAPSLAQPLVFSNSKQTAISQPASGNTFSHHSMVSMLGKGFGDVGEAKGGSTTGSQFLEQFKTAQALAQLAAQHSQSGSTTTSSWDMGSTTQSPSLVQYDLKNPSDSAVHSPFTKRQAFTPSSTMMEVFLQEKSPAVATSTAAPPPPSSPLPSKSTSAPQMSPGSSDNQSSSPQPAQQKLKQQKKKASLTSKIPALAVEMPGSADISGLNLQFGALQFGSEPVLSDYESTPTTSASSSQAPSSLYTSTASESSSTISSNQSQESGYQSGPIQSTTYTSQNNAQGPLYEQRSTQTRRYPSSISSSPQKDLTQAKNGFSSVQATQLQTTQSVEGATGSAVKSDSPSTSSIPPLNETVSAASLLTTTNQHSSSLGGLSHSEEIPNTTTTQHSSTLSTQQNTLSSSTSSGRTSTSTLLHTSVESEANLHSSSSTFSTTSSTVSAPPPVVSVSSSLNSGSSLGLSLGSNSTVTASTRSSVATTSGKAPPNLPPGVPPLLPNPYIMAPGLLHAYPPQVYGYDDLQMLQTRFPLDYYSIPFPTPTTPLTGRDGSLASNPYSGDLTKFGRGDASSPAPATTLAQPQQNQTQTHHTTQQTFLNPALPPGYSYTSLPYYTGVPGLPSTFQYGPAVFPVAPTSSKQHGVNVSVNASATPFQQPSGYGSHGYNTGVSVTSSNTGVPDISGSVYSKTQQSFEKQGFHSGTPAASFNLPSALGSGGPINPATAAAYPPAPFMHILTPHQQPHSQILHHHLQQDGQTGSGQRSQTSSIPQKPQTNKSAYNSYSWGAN
UniProt Q96CW5, whole entry, looked up: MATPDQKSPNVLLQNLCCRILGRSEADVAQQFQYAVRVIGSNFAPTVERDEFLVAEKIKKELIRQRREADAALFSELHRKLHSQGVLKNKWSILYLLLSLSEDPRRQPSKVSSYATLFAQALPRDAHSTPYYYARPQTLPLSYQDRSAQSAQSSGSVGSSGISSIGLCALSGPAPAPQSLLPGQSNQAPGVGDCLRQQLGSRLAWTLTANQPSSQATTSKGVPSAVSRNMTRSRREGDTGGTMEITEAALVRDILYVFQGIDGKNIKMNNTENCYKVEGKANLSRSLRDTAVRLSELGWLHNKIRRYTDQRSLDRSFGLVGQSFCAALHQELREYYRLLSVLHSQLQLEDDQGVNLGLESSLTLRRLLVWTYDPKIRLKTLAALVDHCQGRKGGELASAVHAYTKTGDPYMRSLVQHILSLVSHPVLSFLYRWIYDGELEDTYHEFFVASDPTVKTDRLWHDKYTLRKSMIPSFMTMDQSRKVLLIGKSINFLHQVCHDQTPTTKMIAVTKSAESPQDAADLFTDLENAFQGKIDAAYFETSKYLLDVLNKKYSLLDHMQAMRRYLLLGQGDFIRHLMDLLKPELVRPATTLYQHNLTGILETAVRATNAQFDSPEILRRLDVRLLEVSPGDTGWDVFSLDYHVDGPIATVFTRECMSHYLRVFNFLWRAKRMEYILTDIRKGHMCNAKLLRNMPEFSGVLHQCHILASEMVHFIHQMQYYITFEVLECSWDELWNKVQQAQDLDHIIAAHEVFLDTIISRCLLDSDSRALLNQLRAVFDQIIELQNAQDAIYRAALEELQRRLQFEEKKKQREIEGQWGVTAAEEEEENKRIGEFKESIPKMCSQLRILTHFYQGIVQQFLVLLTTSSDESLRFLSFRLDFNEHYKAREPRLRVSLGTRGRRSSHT
UniProt Q16881, whole entry, looked up: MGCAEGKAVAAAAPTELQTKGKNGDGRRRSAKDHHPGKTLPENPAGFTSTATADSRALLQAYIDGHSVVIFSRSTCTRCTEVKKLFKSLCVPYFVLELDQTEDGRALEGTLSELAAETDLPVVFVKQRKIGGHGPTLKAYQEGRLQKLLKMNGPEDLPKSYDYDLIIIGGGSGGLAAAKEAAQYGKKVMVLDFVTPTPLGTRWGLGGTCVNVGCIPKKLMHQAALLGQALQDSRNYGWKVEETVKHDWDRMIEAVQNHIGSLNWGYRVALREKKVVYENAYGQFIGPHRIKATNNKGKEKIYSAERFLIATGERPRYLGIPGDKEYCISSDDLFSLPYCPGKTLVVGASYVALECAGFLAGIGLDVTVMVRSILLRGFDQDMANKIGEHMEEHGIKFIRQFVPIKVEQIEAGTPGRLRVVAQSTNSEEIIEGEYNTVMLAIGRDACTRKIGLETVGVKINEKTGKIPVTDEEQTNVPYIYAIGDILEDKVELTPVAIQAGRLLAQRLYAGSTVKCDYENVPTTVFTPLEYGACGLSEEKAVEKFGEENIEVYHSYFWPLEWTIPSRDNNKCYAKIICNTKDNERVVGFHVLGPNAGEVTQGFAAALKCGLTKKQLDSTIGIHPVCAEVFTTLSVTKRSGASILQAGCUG
UniProt Q9Y385: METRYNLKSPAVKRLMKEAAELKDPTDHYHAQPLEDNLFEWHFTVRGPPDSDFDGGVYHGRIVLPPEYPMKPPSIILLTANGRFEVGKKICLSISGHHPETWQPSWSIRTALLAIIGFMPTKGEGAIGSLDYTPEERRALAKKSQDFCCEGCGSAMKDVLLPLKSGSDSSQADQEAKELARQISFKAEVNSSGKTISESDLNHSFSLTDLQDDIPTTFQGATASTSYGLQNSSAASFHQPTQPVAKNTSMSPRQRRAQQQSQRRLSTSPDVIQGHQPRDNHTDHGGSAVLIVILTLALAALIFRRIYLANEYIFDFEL
UniProt Q712K3: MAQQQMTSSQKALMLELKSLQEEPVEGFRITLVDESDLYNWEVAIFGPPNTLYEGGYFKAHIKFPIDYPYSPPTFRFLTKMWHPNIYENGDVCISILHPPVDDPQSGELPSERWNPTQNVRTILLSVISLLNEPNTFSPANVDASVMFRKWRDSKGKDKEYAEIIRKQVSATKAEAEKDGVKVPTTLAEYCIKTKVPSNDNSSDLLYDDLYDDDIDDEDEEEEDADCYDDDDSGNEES
UniProt Q9Y5K5, whole entry, looked up: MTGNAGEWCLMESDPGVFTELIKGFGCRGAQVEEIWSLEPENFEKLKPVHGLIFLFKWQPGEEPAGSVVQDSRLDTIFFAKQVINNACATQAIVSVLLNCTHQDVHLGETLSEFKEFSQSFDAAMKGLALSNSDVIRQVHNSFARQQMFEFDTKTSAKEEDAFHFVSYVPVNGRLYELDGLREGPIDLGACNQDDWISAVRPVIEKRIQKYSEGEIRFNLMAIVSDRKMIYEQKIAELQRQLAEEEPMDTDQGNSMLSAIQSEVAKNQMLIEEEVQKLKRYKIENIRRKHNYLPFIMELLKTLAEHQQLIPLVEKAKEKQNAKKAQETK
UniProt Q8NBM4: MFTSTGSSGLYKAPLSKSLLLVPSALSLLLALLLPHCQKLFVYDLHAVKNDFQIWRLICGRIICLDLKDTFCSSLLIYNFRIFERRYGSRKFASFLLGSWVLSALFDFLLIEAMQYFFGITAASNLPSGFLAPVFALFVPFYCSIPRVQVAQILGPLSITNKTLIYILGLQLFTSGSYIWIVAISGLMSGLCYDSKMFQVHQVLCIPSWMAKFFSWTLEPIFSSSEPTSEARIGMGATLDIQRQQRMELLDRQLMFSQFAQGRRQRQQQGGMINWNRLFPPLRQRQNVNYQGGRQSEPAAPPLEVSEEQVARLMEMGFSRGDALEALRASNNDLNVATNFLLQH
UniProt O94941: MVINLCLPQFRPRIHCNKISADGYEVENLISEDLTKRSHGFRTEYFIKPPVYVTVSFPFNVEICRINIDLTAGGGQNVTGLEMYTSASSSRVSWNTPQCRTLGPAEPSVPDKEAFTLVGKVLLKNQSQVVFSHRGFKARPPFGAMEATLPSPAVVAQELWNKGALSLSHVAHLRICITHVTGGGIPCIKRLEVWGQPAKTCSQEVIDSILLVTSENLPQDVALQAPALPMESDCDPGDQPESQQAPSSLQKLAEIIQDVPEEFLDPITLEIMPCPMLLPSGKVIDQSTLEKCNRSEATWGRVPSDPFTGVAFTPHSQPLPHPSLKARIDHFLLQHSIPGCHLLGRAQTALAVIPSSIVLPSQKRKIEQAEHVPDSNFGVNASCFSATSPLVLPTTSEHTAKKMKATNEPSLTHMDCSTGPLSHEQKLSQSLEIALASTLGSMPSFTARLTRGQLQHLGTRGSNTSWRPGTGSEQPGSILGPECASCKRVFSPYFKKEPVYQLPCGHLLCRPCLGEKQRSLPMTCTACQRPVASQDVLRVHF
UniProt Q96J42: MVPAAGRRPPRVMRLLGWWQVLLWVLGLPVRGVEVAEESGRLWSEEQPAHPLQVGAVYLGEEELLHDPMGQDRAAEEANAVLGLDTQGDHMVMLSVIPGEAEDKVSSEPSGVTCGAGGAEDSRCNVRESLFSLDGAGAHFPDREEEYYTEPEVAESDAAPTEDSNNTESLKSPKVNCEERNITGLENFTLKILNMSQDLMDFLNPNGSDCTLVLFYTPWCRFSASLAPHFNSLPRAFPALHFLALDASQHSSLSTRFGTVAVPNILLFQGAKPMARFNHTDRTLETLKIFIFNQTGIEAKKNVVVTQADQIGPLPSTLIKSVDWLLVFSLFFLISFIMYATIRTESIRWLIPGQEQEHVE
UniProt P68543: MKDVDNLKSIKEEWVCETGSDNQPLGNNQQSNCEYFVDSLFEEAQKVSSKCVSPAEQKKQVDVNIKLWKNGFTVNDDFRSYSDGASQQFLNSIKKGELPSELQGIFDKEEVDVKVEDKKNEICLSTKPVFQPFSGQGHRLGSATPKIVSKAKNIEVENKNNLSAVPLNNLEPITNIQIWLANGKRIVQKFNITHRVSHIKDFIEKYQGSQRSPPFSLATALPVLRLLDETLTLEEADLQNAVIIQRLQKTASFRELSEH
UniProt Q6PKC3: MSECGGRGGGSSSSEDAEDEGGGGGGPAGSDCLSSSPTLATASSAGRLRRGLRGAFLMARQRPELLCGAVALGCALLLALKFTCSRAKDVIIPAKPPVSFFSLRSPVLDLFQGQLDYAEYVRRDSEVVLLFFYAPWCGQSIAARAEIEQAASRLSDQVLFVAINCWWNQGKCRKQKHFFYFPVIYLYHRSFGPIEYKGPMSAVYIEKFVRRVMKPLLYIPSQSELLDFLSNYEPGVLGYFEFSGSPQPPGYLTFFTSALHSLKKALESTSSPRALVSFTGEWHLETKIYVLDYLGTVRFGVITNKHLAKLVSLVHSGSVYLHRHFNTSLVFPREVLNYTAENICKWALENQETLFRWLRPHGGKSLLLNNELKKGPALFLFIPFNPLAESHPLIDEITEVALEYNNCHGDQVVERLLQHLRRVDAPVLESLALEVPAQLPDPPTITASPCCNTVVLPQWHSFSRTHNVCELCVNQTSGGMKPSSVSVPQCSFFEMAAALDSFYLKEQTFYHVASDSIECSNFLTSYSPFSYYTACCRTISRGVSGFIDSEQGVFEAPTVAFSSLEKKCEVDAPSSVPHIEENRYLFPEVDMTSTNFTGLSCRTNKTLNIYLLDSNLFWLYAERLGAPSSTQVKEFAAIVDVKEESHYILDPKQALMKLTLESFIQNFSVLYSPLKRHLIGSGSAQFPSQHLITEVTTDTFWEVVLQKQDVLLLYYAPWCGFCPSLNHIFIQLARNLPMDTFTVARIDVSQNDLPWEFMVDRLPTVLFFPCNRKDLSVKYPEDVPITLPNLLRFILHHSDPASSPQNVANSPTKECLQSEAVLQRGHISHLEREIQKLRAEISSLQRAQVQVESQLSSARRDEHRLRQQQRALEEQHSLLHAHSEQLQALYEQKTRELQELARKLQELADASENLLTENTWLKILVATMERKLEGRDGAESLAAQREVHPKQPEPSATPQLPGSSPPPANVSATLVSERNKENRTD

Key:
Assay in all cases: log2 fold change, soluble protein after heating vs DMSO (PISA); higher = thermal stabilisation; K562 lysate, 10 uM; active = over 0.2 and 3.5 SD of the protein, either way, in both replicates (recomputed)
alvocidib = compound: CN1CC[C@H](c2c(O)cc(O)c3c(=O)cc(-c4ccccc4Cl)oc23)[C@H](O)C1 [alvocidib]
Procedure, shortened: (§1)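 Log-two fold change in thermal stability relative to solvent controls is reported from duplicates. For each sample, crude K562 extract from dounce-homogenised pellets in PBS pH 7.4 with 1 mM MgCl2, at 1 mg/mL protein, was treated with 10 μM compound for 30 min. Aliquots heated for 3 min across 48°C-58°C were pooled, brought to 0.5% NP-40 at 4°C and cleared at 21,000xg for 90 min. The supernatant was quantified by TMTpro 16plex LC-MS/MS with channel sums equalised.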

Tubastatin A = compound: CN1CCc2c(c3ccccc3n2Cc2ccc(C(=O)NO)cc2)C1 [Tubastatin A]
Procedure, shortened: as §1

[1] = compound: CNC(=O)C1=CC=CC=C1NC2=NC(=NC=C2Cl)NC3=C(C=C(C=C3)N4CCOCC4)OC
Procedure, shortened: as §1

defactinib = compound: CNC(=O)c1ccc(Nc2ncc(C(F)(F)F)c(NCc3nccnc3N(C)S(C)(=O)=O)n2)cc1 [defactinib]
Procedure, shortened: as §1

[2] = compound: CNc1nc(-c2ccc3c(N)n[nH]c3c2)cc(N2C[C@@H](C(=O)NC3CCCCC3)CC[C@H]2C)n1
Procedure, shortened: as §1

encorafenib = compound: COC(=O)N[C@@H](C)CNc1nccc(-c2cn(C(C)C)nc2-c2cc(Cl)cc(NS(C)(=O)=O)c2F)n1 [encorafenib]
Procedure, shortened: as §1

[3] = compound: COC(=O)[C@H](CCSC)NC(=O)C1=C(C=C(C=C1)NC[C@H](CS)N)C2=CC=CC=C2
Procedure, shortened: as §1

alisertib = compound: COc1cc(Nc2ncc3c(n2)-c2ccc(Cl)cc2C(c2c(F)cccc2OC)=NC3)ccc1C(=O)O [alisertib]
Procedure, shortened: as §1

[4] = compound: COc1cc2nc(-c3cc(F)ccc3O)nc(N[C@@H]3CNC[C@H]3C(C)(C)O)c2cc1OC
Procedure, shortened: as §1

gefitinib = compound: COc1cc2ncnc(Nc3ccc(F)c(Cl)c3)c2cc1OCCCN1CCOCC1 [gefitinib]
Procedure, shortened: as §1

lapatinib = compound: CS(=O)(=O)CCNCc1ccc(-c2ccc3ncnc(Nc4ccc(OCc5cccc(F)c5)c(Cl)c4)c3c2)o1 [lapatinib]
Procedure, shortened: as §1

pictilisib = compound: CS(=O)(=O)N1CCN(Cc2cc3nc(-c4cccc5[nH]ncc45)nc(N4CCOCC4)c3s2)CC1 [pictilisib]
Procedure, shortened: as §1

crizotinib = compound: C[C@@H](Oc1cc(-c2cnn(C3CCNCC3)c2)cnc1N)c1c(Cl)ccc(F)c1Cl [crizotinib]
Procedure, shortened: as §1

[5] = compound: C[C@H](C1=CC=C(C=C1)C(=O)NC2=C3C=CNC3=NC=C2)N
Procedure, shortened: as §1

duvelisib = compound: C[C@H](Nc1ncnc2nc[nH]c12)c1cc2cccc(Cl)c2c(=O)n1-c1ccccc1 [duvelisib]
Procedure, shortened: as §1

gandotinib = compound: Cc1cc(Nc2cc(CN3CCOCC3)c3nc(C)c(Cc4ccc(Cl)cc4F)n3n2)n[nH]1 [gandotinib]
Procedure, shortened: as §1

tozasertib = compound: Cc1cc(Nc2cc(N3CCN(C)CC3)nc(Sc3ccc(NC(=O)C4CC4)cc3)n2)n[nH]1 [tozasertib]
Procedure, shortened: as §1

doramapimod = compound: Cc1ccc(-n2nc(C(C)(C)C)cc2NC(=O)Nc2ccc(OCCN3CCOCC3)c3ccccc23)cc1 [doramapimod]
Procedure, shortened: as §1

bafetinib = compound: Cc1ccc(NC(=O)c2ccc(CN3CC[C@H](N(C)C)C3)c(C(F)(F)F)c2)cc1Nc1nccc(-c2cncnc2)n1 [bafetinib]
Procedure, shortened: as §1

[6] = compound: Cc1cccc(CC(=O)N2CCc3c2ccc(-c2cn(C)c4ncnc(N)c24)c3F)n1
Procedure, shortened: as §1

Measured: log2 fold change

TXNL1 (UniProt O43396)
inactive: alvocidib 0.019 | Tubastatin A 0.032 | [1] -0.014 | defactinib 0.014 | [2] 0.014 | encorafenib 0.004 | [3] 0.013 | alisertib 0 | [4] 0.002 | gefitinib 0.012 | lapatinib -0.003 | pictilisib 0.002 | crizotinib -0.004 | [5] -0.018 | duvelisib -0.007 | gandotinib -0.006 | tozasertib -0.021 | doramapimod -0.008 | bafetinib -0.014 | [6] 0.012

UBAP2L isoform 5 (UniProt Q14157)
inactive: alvocidib 0.019 | Tubastatin A 0.008 | [1] 0.007 | defactinib 0.016 | [2] 0.038 | encorafenib 0.041 | [3] -0.002 | alisertib 0.027 | [4] 0.022 | gefitinib -0.031 | lapatinib -0.022 | pictilisib -0.116 | crizotinib 0.099 | [5] -0.002 | duvelisib -0.047 | gandotinib 0.034 | tozasertib -0.049 | doramapimod -0.121 | bafetinib -0.015 | [6] -0.026

TUBB3 (UniProt Q13509)
inactive: alvocidib -0.001 | Tubastatin A -0.081 | [1] 0.006 | defactinib 0.023 | [2] -0.034 | encorafenib -0.004 | [3] 0.072 | alisertib 0.007 | [4] 0.007 | gefitinib -0.016 | lapatinib 0.015 | pictilisib 0.032 | crizotinib -0.027 | [5] 0.018 | duvelisib 0.026 | gandotinib 0.02 | tozasertib 0.001 | doramapimod -0.005 | bafetinib 0.021 | [6] 0.001

TUBGCP3 (UniProt Q96CW5)
inactive: alvocidib -0.003 | Tubastatin A -0.094 | [1] 0.026 | defactinib 0.022 | [2] -0.024 | encorafenib 0.024 | [3] 0.011 | alisertib 0.044 | [4] -0.017 | gefitinib 0.056 | lapatinib -0.017 | pictilisib 0.012 | crizotinib -0.055 | [5] -0.012 | duvelisib 0.036 | gandotinib -0.054 | tozasertib 0.027 | doramapimod 0.014 | bafetinib -0.057 | [6] 0.013

UBR7 (UniProt Q8N806)
inactive: alvocidib 0.059 | Tubastatin A 0.002 | [1] -0.02 | defactinib 0.041 | [2] -0.015 | encorafenib 0.008 | [3] -0.02 | alisertib -0.057 | [4] 0.023 | gefitinib 0.013 | lapatinib 0.001 | pictilisib -0.007 | crizotinib 0.003 | [5] 0.161 | duvelisib 0.038 | gandotinib -0.143 | tozasertib 0.045 | doramapimod 0.031 | bafetinib 0.024 | [6] -0.189

UBR3 isoform 4 (UniProt Q6ZT12)
inactive: alvocidib 0.012 | Tubastatin A -0.155 | [1] 0.074 | defactinib -0.062 | [2] -0.03 | encorafenib -0.006 | [3] 0.054 | alisertib -0.005 | [4] 0.005 | gefitinib 0.018 | lapatinib -0.003 | pictilisib 0.01 | crizotinib -0.092 | [5] -0.006 | duvelisib -0.003 | gandotinib -0.046 | tozasertib 0.06 | doramapimod 0.015 | bafetinib -0.042 | [6] 0.05

TXNRD1 (UniProt Q16881)
inactive: alvocidib -0.027 | Tubastatin A 0.054 | [1] -0.022 | defactinib -0.006 | [2] 0.034 | encorafenib -0.02 | [3] -0.011 | alisertib 0.001 | [4] 0.007 | gefitinib 0.008 | lapatinib -0.002 | pictilisib 0.009 | crizotinib -0.009 | [5] -0.084 | duvelisib -0.018 | gandotinib 0.025 | tozasertib 0.008 | doramapimod -0.003 | bafetinib 0.032 | [6] 0.007

UBE2J1 (UniProt Q9Y385)
inactive: alvocidib 0.034 | Tubastatin A 0.044 | [1] 0.035 | defactinib -0.046 | [2] 0.022 | encorafenib -0.008 | [3] 0.143 | alisertib -0.06 | [4] 0.05 | gefitinib 0.013 | lapatinib -0.019 | pictilisib 0.011 | crizotinib -0.007 | [5] -0.056 | duvelisib -0.048 | gandotinib -0.03 | tozasertib -0.012 | doramapimod 0.007 | bafetinib 0.004 | [6] -0.013

UBE2R2 (UniProt Q712K3)
inactive: alvocidib 0.048 | Tubastatin A 0.006 | [1] -0.011 | defactinib -0.001 | [2] -0.003 | encorafenib -0.032 | [3] -0.043 | alisertib 0 | [4] -0.008 | gefitinib 0.028 | lapatinib 0 | pictilisib -0.03 | crizotinib 0.005 | [5] 0.01 | duvelisib 0.005 | gandotinib 0 | tozasertib 0.026 | doramapimod 0.037 | bafetinib 0.006 | [6] -0.024

UBAP2 (UniProt Q5T6F2)
inactive: alvocidib -0.081 | Tubastatin A 0.026 | [1] -0.026 | defactinib -0.003 | [2] 0.005 | encorafenib 0.033 | [3] -0.021 | alisertib 0.005 | [4] 0.011 | gefitinib 0.014 | lapatinib -0.04 | pictilisib -0.079 | crizotinib 0.091 | [5] -0.173 | duvelisib -0.003 | gandotinib 0.095 | tozasertib -0.02 | doramapimod -0.097 | bafetinib -0.066 | [6] 0.061

UCHL5 isoform 3 (UniProt Q9Y5K5)
inactive: alvocidib -0.009 | Tubastatin A -0.063 | [1] 0.008 | defactinib -0.024 | [2] -0.011 | encorafenib -0.004 | [3] 0.088 | alisertib -0.026 | [4] -0.012 | gefitinib -0.014 | lapatinib 0.042 | pictilisib -0.029 | crizotinib 0.022 | [5] 0.121 | duvelisib -0.01 | gandotinib -0.044 | tozasertib -0.007 | doramapimod -0.015 | bafetinib -0.019 | [6] -0.02

UBAC2 (UniProt Q8NBM4)
inactive: alvocidib -0.081 | Tubastatin A 0.046 | [1] 0.037 | defactinib 0.04 | [2] -0.116 | encorafenib 0.112 | [3] -0.061 | [4] 0.226 | lapatinib 0.103 | pictilisib 0.076 | crizotinib 0.038 | [5] -0.078 | duvelisib 0.001 | gandotinib -0.323 | tozasertib 0.086 | doramapimod 0.066 | bafetinib -0.004 | [6] 0.005

Looked up one by one from the list above (2):
UCHL5 isoform 3 (UniProt Q9Y5K5)
inactive: alvocidib -0.009 | Tubastatin A -0.063 | [1] 0.008 | defactinib -0.024 | [2] -0.011 | encorafenib -0.004 | [3] 0.088 | alisertib -0.026 | [4] -0.012 | gefitinib -0.014 | lapatinib 0.042 | pictilisib -0.029 | crizotinib 0.022 | [5] 0.121 | duvelisib -0.01 | gandotinib -0.044 | tozasertib -0.007 | doramapimod -0.015 | bafetinib -0.019 | [6] -0.02

UBE2J1 (UniProt Q9Y385)
inactive: alvocidib 0.034 | Tubastatin A 0.044 | [1] 0.035 | defactinib -0.046 | [2] 0.022 | encorafenib -0.008 | [3] 0.143 | alisertib -0.06 | [4] 0.05 | gefitinib 0.013 | lapatinib -0.019 | pictilisib 0.011 | crizotinib -0.007 | [5] -0.056 | duvelisib -0.048 | gandotinib -0.03 | tozasertib -0.012 | doramapimod 0.007 | bafetinib 0.004 | [6] -0.013

Later entries:

UBOX5 (UniProt O94941)
inactive: alvocidib 0.044 | Tubastatin A -0.021 | [1] 0.031 | [2] -0.116 | alisertib -0.064 | gefitinib -0.077 | [5] -0.124 | duvelisib -0.097 | gandotinib 0.035 | [6] -0.086

TXNDC15 (UniProt Q96J42)
inactive: alvocidib -0.009 | Tubastatin A 0.043 | [1] -0.015 | defactinib 0.095 | [2] 0.021 | encorafenib 0.075 | [3] -0.034 | alisertib 0.012 | [4] -0.018 | gefitinib -0.019 | lapatinib -0.009 | pictilisib -0.021 | crizotinib 0.048 | [5] 0.014 | duvelisib 0.047 | gandotinib -0.012 | tozasertib 0.027 | doramapimod 0.001 | bafetinib -0.071 | [6] -0.003

TUBB4A (UniProt M0QYM7)
inactive: alvocidib -0.158 | Tubastatin A -0.007 | [1] -0.109 | defactinib -0.115 | encorafenib 0.009 | [3] 0.053 | alisertib -0.025 | [4] 0.042 | gefitinib -0.076 | lapatinib -0.009 | pictilisib -0.067 | crizotinib -0.176 | gandotinib 0.39 | tozasertib 0.138 | doramapimod 0.116 | bafetinib -0.516 | [6] 0.42
active: [5] -1.05

UBXN2A (UniProt P68543)
inactive: alvocidib 0.083 | Tubastatin A -0.107 | [1] -0.032 | defactinib 0.019 | [2] 0.095 | [4] 0 | lapatinib -0.021 | pictilisib 0.139 | crizotinib -0.085 | [5] -0.059 | duvelisib 0.035 | gandotinib 0.097 | doramapimod 0.096 | bafetinib -0.009 | [6] -0.013

TXNDC11 (UniProt Q6PKC3)
inactive: alvocidib -0.057 | Tubastatin A -0.036 | [1] 0.052 | [2] -0.06 | encorafenib 0.071 | [3] 0.042 | alisertib -0.089 | [4] 0.049 | gefitinib -0.061 | lapatinib -0.044 | pictilisib 0.057 | crizotinib 0.052 | [5] -0.042 | duvelisib -0.007 | gandotinib -0.025 | tozasertib 0.023 | doramapimod -0.016 | bafetinib -0.057 | [6] 0.063
